Measurements as given in patent publication US8518459B2, “Composition for regulating lipid metabolism” (Actigenomics S.A., priority 2009, dated 2013).

Experiment: Food intake of mice on cholesterol-enriched diet
Type: in vivo, C57bl6J male mice
Details: per mouse after 12 weeks of treatment

Compound: CC(C)c1c(C(=O)Nc2ccccc2)c(-c2ccccc2)c(-c2ccc(F)cc2)n1CC[C@@H](O)C[C@@H](O)CC(=O)O [atorvastatin]
- Cumulative food intake (FIG. 4): 229 g
